Test results taken from PubChem BioAssay AID528 (NMMLSC, 2006).
The campaign covered roughly 24,000 compounds. Fewer than 10 were called active. The inconclusive results got no clear call from the source; some entries with a clear call stand among them for comparison.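 Rule for the calls: active = fluorescent ligand binding to cells raised by more than 40% of the manganese-induced maximum; inconclusive = compound's own fluorescence above 85% of the ligand control signal; inactive = the rest.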

Protein sequences, listed by entry. Tags and fused reporters are not part of them.
UniProt P13612, whole entry, looked up: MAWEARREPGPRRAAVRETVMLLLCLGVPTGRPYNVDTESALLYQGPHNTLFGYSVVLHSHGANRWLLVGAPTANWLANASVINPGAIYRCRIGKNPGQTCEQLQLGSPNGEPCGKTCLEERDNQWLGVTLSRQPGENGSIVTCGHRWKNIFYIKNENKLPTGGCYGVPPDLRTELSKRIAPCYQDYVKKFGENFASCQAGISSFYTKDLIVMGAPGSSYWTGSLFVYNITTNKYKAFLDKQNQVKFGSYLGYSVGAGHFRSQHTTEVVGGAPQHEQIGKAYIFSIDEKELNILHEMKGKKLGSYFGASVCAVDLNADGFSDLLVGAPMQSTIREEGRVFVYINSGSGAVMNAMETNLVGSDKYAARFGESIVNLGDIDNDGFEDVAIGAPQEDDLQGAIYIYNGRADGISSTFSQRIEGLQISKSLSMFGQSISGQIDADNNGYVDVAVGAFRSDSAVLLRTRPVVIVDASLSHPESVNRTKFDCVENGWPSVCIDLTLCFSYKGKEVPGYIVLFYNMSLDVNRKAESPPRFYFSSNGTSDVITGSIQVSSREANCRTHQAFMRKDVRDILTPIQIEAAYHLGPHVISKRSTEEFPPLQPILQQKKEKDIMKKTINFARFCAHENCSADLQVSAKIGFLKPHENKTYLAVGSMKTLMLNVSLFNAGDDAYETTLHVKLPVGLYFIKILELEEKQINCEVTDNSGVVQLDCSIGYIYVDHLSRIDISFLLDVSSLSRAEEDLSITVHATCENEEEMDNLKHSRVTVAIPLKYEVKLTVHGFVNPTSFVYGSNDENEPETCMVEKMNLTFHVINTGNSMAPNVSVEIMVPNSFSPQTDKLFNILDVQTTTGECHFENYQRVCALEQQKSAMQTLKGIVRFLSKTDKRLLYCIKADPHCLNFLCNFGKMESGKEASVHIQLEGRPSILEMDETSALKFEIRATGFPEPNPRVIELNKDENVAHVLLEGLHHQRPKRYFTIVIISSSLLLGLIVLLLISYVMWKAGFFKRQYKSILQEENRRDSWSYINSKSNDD

Biological target: Integrin alpha-4 (Homo sapiens) (UniProt P13612)
Assay: enhancers of LDV-FITC binding to VLA-4 integrin, primary screen, Jurkat cells, flow cytometry (AID 528);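 for activation: 0% = ligand binding without compound and 100% = manganese-stimulated maximal binding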
Conditions: active compounds read high, screened at 10 µM (by protocol)

Compound	activation
Cc1ccccc1CSc1ncc(C#N)c(N)n1	inconclusive
COc1ccc(S(=O)(=O)NCC(c2cccnc2)N2CCN(c3ccccc3)CC2)cc1C (configuration not stated)	inconclusive
COc1ccc(-c2nc(N3CCCC3)nc3nn4c(C)cc(C)nc4c23)cc1	inactive: 2%
COc1ccc(NC(=O)CSc2nc3ccccc3c(=O)n2CCC(=O)N2CCCCC2)cc1	inconclusive
Cc1ccc2c(c1)c1c3n2CCN(C(=O)C2CC2)C3CCC1 (configuration not stated)	inconclusive
O=CN1CCN(C(C(=O)NC2CCCC2)c2ccc(Cl)cc2)CC1 (configuration not stated)	inactive: 4%
CCOc1ccc(C(c2nnnn2Cc2ccccc2)N2CCN(C(=O)c3ccco3)CC2)cc1 (configuration not stated)	inconclusive
O=C(NCc1ccco1)c1csc(Nc2ccccc2Cl)n1	inconclusive
O=C(Cn1cccc1C(=O)c1ccccc1)NCc1cccs1	inactive: 0%
COc1cccc(-c2cc(C(=O)Nc3c(C)nn(Cc4ccccc4C)c3C)no2)c1	inconclusive
COC(=O)C(C)NS(=O)(=O)c1ccc(NC(C)=O)cc1 (configuration not stated)	inconclusive
COc1ccc(CCNC(=O)c2ccc3c(c2)NC(=O)C(N2CCOCC2)S3)cc1OC (configuration not stated)	inconclusive
Cn1c(=O)n(C)c2cc(/C=N/n3cnnc3)ccc21	inconclusive
COc1cc(C(c2sc3nc(C)nn3c2O)N2CCC3(CC2)OCCO3)cc(OC)c1OC (configuration not stated)	inconclusive
CCOc1ccc(S(=O)(=O)n2ccnc2)c2ccccc12	inactive: 1%
CC(C)NC(=O)C1CCN(C(=O)c2cc3sccc3n2Cc2ccc(F)cc2)CC1	inconclusive
COC(=O)c1ccc(-c2sc3nc(N4CCOCC4)c4c(c3c2N)CCCC4)o1	inconclusive
CCn1cc(C(=O)N2CCOCC2)c(=O)c2cc(S(=O)(=O)N(C)C)ccc21	inconclusive
N#Cc1c(-c2ccc(Cl)cc2Cl)nc2n(c1=O)CCS2	inconclusive
CCN(CCCNC(=O)CCc1nc(-c2ccc(OC)cc2)no1)c1cccc(C)c1	inactive: -9%
CCCNC(=O)c1cc(S(=O)(=O)N2CCc3ccccc32)ccc1F	inconclusive
CC(C)(C)OC(=O)N1CCC(C(=O)N2CCCCCC2)CC1	inactive: 1.5%
CCOc1ccc(OCC)c(NC(=O)C(NS(=O)(=O)c2ccc3c(c2)oc(=O)n3C)C(C)C)c1 (configuration not stated)	inactive: -2%
O=C(CCS(=O)(=O)c1ccc(Br)cc1)NCc1cccs1	inconclusive
CCC1CCCCN1C(=O)CSc1nnc(CNC(=O)COc2ccc(Cl)cc2)o1 (configuration not stated)	inactive: -1%

Single entries from the entries so far:
Under activation, Cn1c(=O)n(C)c2cc(/C=N/n3cnnc3)ccc21 is entered as inconclusive
Under activation, CCOc1ccc(C(c2nnnn2Cc2ccccc2)N2CCN(C(=O)c3ccco3)CC2)cc1 (configuration not stated) is entered as inconclusive
Under activation, O=CN1CCN(C(C(=O)NC2CCCC2)c2ccc(Cl)cc2)CC1 (configuration not stated) is entered as inactive: 4%
Under activation, O=C(CCS(=O)(=O)c1ccc(Br)cc1)NCc1cccs1 is entered as inconclusive

The list goes on:

Compound	activation
O=C1CCN2C=Nc3cccc4ccc1c2c34	inconclusive
CCc1ccc(S(=O)(=O)NCc2csc(-c3ccccc3)n2)s1	inconclusive
CC(C)CC(NS(=O)(=O)c1ccc2c(c1)oc(=O)n2C)C(=O)NCc1cccnc1 (configuration not stated)	inactive: 4%
Cc1ccccc1-c1nc(CN2CCC(C(=O)NC3CCN(Cc4ccccc4)CC3)CC2)c(C)o1	inactive: 0.5%
Cc1c(C(=O)N2CCOCC2)oc2ccc(S(=O)(=O)N3CCCC3)cc12	inconclusive
CC(=O)Nc1ccc(Cc2ccncc2)cc1	inconclusive
COc1ccc(C(=O)N[C@H]2COC(C)(C)O[C@H]2c2ccccc2)cc1	inactive: -1%
Cn1c(Cn2c(=O)sc3ccccc32)nnc1SCC(=O)NCc1ccccc1Cl	inactive: 6%
COc1ccccc1NC(=O)CN1CCN(CC(=O)Nc2ccc(Cl)c(C(F)(F)F)c2)CC1	inconclusive
CC(=O)c1ccc(N2CCN(C(=O)c3cc4c(-c5ccccc5F)nn(C)c4s3)CC2)cc1	inconclusive
CC1(C2(O)CC(c3ccccc3)ON2)CCCCC1 (configuration not stated)	inactive: -2.3%
COc1cc(NC(=O)CN2CCN(S(=O)(=O)c3ccc(C(C)C)cc3)CC2)cc(OC)c1	inconclusive
CN(CC(O)COc1ccc(OCC(O)CN(C)C2CCCCC2)cc1)C1CCCCC1 (configuration not stated)	inactive: 1%
COc1ccccc1S(=O)Cc1ccc(C(=O)NCCc2ccc(Cl)cc2)o1 (configuration not stated)	inconclusive
COc1cccc(NC(=O)Cn2cc3c(n2)CCCCC3)c1	inconclusive
Cc1cccn2c(=O)c3cc(C(=O)NCc4ccccn4)n(C)c3nc12	inactive: -2%
CCOc1ccccc1N1CSC2=C(C#N)C(c3c(OC)ccc4ccccc34)CC(=O)N2C1 (configuration not stated)	inconclusive
COc1ccc2cc3cc(C(=O)Nc4ccc5c(c4)OCCO5)oc3nc2c1	inconclusive
CCOc1cc2oc(=O)c3c(c2cc1Cl)CCC3	inconclusive
Cc1ccc(-n2c(=O)c(C#N)cc3c(=O)n4ccccc4nc32)cc1	inconclusive
COc1cc(OC)cc(-c2nnc(Nc3nc4c(F)cccc4s3)o2)c1	inactive: 6.7%
COC(=O)c1cc2ccsc2n1Cc1cc(=O)n2ccccc2n1	inconclusive
COCCN(CCOC)S(=O)(=O)c1ccc(C(=O)Nc2nc(C)c(C(C)=O)s2)cc1	inconclusive
Cc1ccc2[nH]c3c(N4CCN(Cc5ccc6c(c5)OCO6)CC4)ncnc3c2c1	inconclusive
Cc1cc(C(=O)O)c(S(C)(=O)=O)s1	inconclusive

Among those listed so far, 5 contain two or more sulfur atoms:
Compound	activation
O=C(CCS(=O)(=O)c1ccc(Br)cc1)NCc1cccs1	inconclusive
CCc1ccc(S(=O)(=O)NCc2csc(-c3ccccc3)n2)s1	inconclusive
Cn1c(Cn2c(=O)sc3ccccc32)nnc1SCC(=O)NCc1ccccc1Cl	inactive: 6%
COCCN(CCOC)S(=O)(=O)c1ccc(C(=O)Nc2nc(C)c(C(C)=O)s2)cc1	inconclusive
Cc1cc(C(=O)O)c(S(C)(=O)=O)s1	inconclusive

(listing goes on)

Compound	activation
O=C(Cn1c(=O)oc2cc(S(=O)(=O)N3CCCC3)ccc21)NCc1ccccn1	inactive: 2%
Cc1cc(S(=O)(=O)NC2CCCCC2)ccc1OCC(=O)NCc1ccccn1	inactive: 0.5%
COc1ccc(N(CC(=O)Nc2ccc(C)cn2)S(=O)(=O)c2c(C)noc2C)cc1	inactive: 2%
CC#CCCCC(=O)Nc1ccc(C(=O)O)cc1	inconclusive
O=C(CCNC(=O)Cn1ccc2ccccc2c1=O)NCCN1CCN(c2ccccc2F)CC1	inconclusive
Cc1cc(Br)ccc1NC(=O)CCN1C(=O)c2ccncc2C1=O	inconclusive
Cc1nc2sc(C(c3ccccc3)N3CCN(c4ccccc4F)CC3)c(O)n2n1 (configuration not stated)	inconclusive
COc1ccc(N2CCN(CCCNS(=O)(=O)c3c(C)noc3/C=C/N(C)C)CC2)cc1	inactive: -3.3%
CCOC(=O)C1=C(C)Nc2nc(C)nn2C1c1ccc(OCC)c(OC)c1 (configuration not stated)	inconclusive
Cc1onc(-c2ccccc2Cl)c1C(=O)Nc1ccc(-n2nncc2-c2ccco2)cc1	inconclusive
COc1ccc(NC(=O)CSc2ccccn2)cc1OC	inactive: -2%
Cc1cc2ccccc2c(=O)n1CC(=O)NCC1COc2ccccc2O1 (configuration not stated)	inconclusive
COc1ccc(-c2noc(CCC(=O)N3CCN(c4cc(C)ccc4C)CC3)n2)cc1	inactive: -4%
CN1CCN(c2cc3c(c4c2[nH]c2ccccc24)C(=O)CC(C)(C)C3)CC1	inactive: -8%
O=C(CSc1nnc2scc(-c3ccccc3)n12)Nc1nsc(-c2ccccc2)n1	inactive: -9%
CCCC(=O)Nc1cccc(-c2cn3ccsc3n2)c1	inactive: 3%
CCC(C)NC(=O)CCC(=O)Nc1ccc2nc(N3CCOCC3)cc(C)c2c1 (configuration not stated)	inconclusive
COC(=O)c1ccc(-c2cc(C(=O)O)c3cc4c(cc3n2)OCCO4)cc1	inconclusive
Nc1cc(OC(=O)c2ccccc2Br)nn1S(=O)(=O)c1ccccc1	inconclusive
O=C(NC1CCCc2ccccc21)C1CCN(c2c(N3CCCC3)c(=O)c2=O)CC1 (configuration not stated)	inactive: -13%
C=C(C)C1Cc2c(C)nn(-c3nc(C)cc(C)n3)c2C1 (configuration not stated)	inactive: -20%
Cc1oc(-c2ccc(Cl)cc2)nc1CN1CCC(C(=O)NCCCN2CCOCC2)CC1	inactive: 3%
CCOC(=O)c1c(C)c(C(=O)NCCOC)c(C)n1CC	inconclusive
COc1cc(OC)c(NC(=O)CS(=O)(=O)Cc2nc(-c3ccc(C)cc3)oc2C)cc1Cl	inconclusive
O=C(CCCCn1c(=O)[nH]c2ccccc2c1=O)NCc1ccc2c(c1)OCO2	inactive: 10%

Compound	activation
CC1(C)OC(=O)N(Cc2ccco2)C1(C)O (configuration not stated)	inactive: -3%
COc1ccc(OC)c(C2N(c3ccc(Cl)cc3)C(=O)C3CCCN32)c1 (configuration not stated)	inactive: 1%
CCOC(=O)c1sc2nc3n(c(=O)c2c1C)CCC(C)CC3 (configuration not stated)	inconclusive
CCOc1cccc2c1OC1(C)CC2NC(=O)N1c1cccc(Cl)c1 (configuration not stated)	inconclusive
CCOC(=O)N1CCC(NC(=O)c2cc(C)c3c(C)nn(-c4ccccc4)c3n2)CC1	inactive: 2%
O=C(c1ccc(CS(=O)(=O)c2cccc(C(F)(F)F)c2)o1)N1CCN(c2ccccn2)CC1	inactive: -6%
O=C(Nc1ccc(F)cc1Cl)c1ccc2c(=O)n3c(nc2c1)CCCCC3	inconclusive
Cn1c(Cn2c(=O)sc3ccccc32)nnc1SCC(N)=O	inconclusive
O=C(CSc1nc2[nH]ncc2c(=O)n1-c1ccccc1)N1CCCc2ccccc21	inconclusive
COc1ccc(C2=NOC(C(=O)NCc3ccc(F)cc3)C2)cc1OC (configuration not stated)	inconclusive
Cc1cccc(OCC(=O)NCc2ccncc2)c1C	inactive: -3%
CC(NC(=O)c1cnc2n(c1=O)CCS2)c1ccccc1 (configuration not stated)	inconclusive
CN(CCNC(=O)c1cn(C)c2ccc(S(=O)(=O)N(C)C)cc2c1=O)CCc1ccccc1	inconclusive
CCOC(=O)NC(NCC(O)c1ccccc1)(C(F)(F)F)C(F)(F)F (configuration not stated)	inactive: 21%
Cc1ccc(/C=c2\sc3nc(-c4ccco4)nn3c2=O)o1	inconclusive
COCCCNC(=O)c1ccc2c(=O)n(C3CCCC3)c(=S)[nH]c2c1	inconclusive
Cc1cc(C(=O)Cn2cncn2)c(C)n1CCc1ccc(F)cc1	inconclusive
CCOC(=O)c1sc(=S)n2c1[nH]c(=O)c1ccc(C(=O)OC)cc12	inconclusive
CCc1ccc(-c2nc(CSCC(=O)NCCCN3CCCC3=O)c(C)o2)cc1	inactive: -2%
O=C(Nc1ccc(N2CCN(Cc3ccccc3Cl)CC2)cc1)c1cccnc1	inconclusive
COc1ccc2c(c1OC)C(=O)OC2Nn1cncn1 (configuration not stated)	inactive: -1.5%
O=C(CSC1=NCCS1)NCc1ccco1	inactive: -5%
